According to US20210189010A1:
Results are given in words; binding and its absence hold for the method and conditions named. Some results given as binding are weak or reduced against the parent protein; the word gives no strength. Tags and fused reporters may be left off the sequences shown.

Columns and labels:
[1] = target: T1, C-terminal 31-peptide of hTK1 (human) (UniProt P04183); test: affinity chromatography on antigen-coupled agarose column
T1 sequence (peptide, coupled to agarose gel column, looked up): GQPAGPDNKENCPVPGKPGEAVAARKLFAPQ

[2] = target: T2, human thymidine kinase 1 (hTK1) (human) (UniProt P04183); test: ELISA on TK1 antigen-coated plate
T2 sequence (looked up): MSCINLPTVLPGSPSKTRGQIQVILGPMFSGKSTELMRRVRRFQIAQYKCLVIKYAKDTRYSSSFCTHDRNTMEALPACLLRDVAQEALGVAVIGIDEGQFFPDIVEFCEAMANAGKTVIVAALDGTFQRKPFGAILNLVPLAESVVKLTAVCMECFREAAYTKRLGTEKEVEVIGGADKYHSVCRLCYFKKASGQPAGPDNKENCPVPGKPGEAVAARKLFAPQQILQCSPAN

B1: anti-hTK1 recombinant chicken IgY single-chain antibody (scFv) with SBP-tag, expressed in E. coli BL21(DE3) from pET22b (scFv, not shown: small tags and cut ends)
scFv: AVTLDESGGGLQTPGGTLSLVCKASGFTFSDYGMNWVRQAPGKGLEFVAGIENDGSSTWYATAVKGRATISRDNGQSTVRLQLNNLRAEDTATYFCAKDFSSGYGGWSASGGIDAWGHGTEVIVSSGGGSGGGGSGGGGSGGGSALTQPSSVSANPGETVKITCSGDRSSYYGYYGWYQQKAPGSAPLTVIYYSSNRPTNIPSRFSGSKSGSTATLTITGVRAEDEAVYYCGSAEDSSYAAIFGAGTTL
binding [1]: binds | binding [2]: binds
